PubChem BioAssay AID1224830 – NIAID | 2016
Aim: 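Genes whose knock-down alters the TNF-alpha reporter response to LPS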 (primary screen). System: human THP-1 monocytic leukaemia cells, TNF dual-luciferase reporter clone, PMA-differentiated to macrophage-like cells. Reagents: siRNA pool against human genes, 50 nM. Time to read-out: LPS for 4 h, given about 3 days after siRNA transfection. Challenge: bacterial LPS (TLR4 ligand), 10 ng/ml. Measured: 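Ratio of firefly to renilla light, scaled to the plate median and expressed as a robust z-score per replicate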. Scale: TNF reporter robust z-score: higher = stronger TNF reporter response to LPS. Active means: 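Each well counts as active if its z-score is over 2.8 or under -1.5; controls are left without a call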.
Here is an unselected part of about 18,000 reagents. In the full data, about 2,900 (16%) got an active call. 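Calls are made per well; low scores hint the gene aids the LPS response, high scores that it dampens it.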 Repeated entries: four replicate wells of each siRNA pool. No sequences are given here.

no.	gene	TNF reporter robust z-score	call
1	TNPO3 (GeneID 23534)	-0.25	inactive
2	TNPO3 (GeneID 23534)	-0.65	inactive
3	TNPO3 (GeneID 23534)	-0.02	inactive
4	TNPO3 (GeneID 23534)	-0.14	inactive
5	ADSS1 (GeneID 122622)	0.33	inactive
6	ADSS1 (GeneID 122622)	0.73	inactive
7	ADSS1 (GeneID 122622)	0.47	inactive
8	ADSS1 (GeneID 122622)	0.84	inactive
9	TTC29 (GeneID 83894)	0.85	inactive
10	TTC29 (GeneID 83894)	1.03	inactive
11	TTC29 (GeneID 83894)	-0.04	inactive
12	TTC29 (GeneID 83894)	1.15	inactive
13	MAFB (GeneID 9935)	-2.1	active
14	MAFB (GeneID 9935)	-1.62	active
15	MAFB (GeneID 9935)	-1.77	active
16	MAFB (GeneID 9935)	-1.7	active
17	OR5D13 (GeneID 390142)	-0.36	inactive
18	OR5D13 (GeneID 390142)	0.12	inactive
19	OR5D13 (GeneID 390142)	0.66	inactive
20	CSNK2A1 (GeneID 1457)	-1.48	inactive
21	CSNK2A1 (GeneID 1457)	0.75	inactive
22	CSNK2A1 (GeneID 1457)	-0.97	inactive
23	CSNK2A1 (GeneID 1457)	0.99	inactive
24	TM2D2 (GeneID 83877)	-0.68	inactive
25	TM2D2 (GeneID 83877)	0.64	inactive
26	TM2D2 (GeneID 83877)	0.7	inactive
27	TM2D2 (GeneID 83877)	0.75	inactive
28	POPDC3 (GeneID 64208)	-0.8	inactive
29	POPDC3 (GeneID 64208)	0.26	inactive
30	POPDC3 (GeneID 64208)	0.14	inactive
31	POPDC3 (GeneID 64208)	0.53	inactive
32	ATP1B2 (GeneID 482)	-1.26	inactive
33	ATP1B2 (GeneID 482)	-1.01	inactive
34	ATP1B2 (GeneID 482)	-1.27	inactive
35	ATP1B2 (GeneID 482)	-1.04	inactive
36	SP140L (GeneID 93349)	0.09	inactive
37	SP140L (GeneID 93349)	-0.19	inactive
38	SP140L (GeneID 93349)	-0.05	inactive

The list goes on (5 carried over from the part before).
no.	gene	TNF reporter robust z-score	call
34	ATP1B2 (GeneID 482)	-1.27	inactive
35	ATP1B2 (GeneID 482)	-1.04	inactive
36	SP140L (GeneID 93349)	0.09	inactive
37	SP140L (GeneID 93349)	-0.19	inactive
38	SP140L (GeneID 93349)	-0.05	inactive
39	APOBEC3C (GeneID 27350)	-1.35	inactive
40	APOBEC3C (GeneID 27350)	-1.33	inactive
41	APOBEC3C (GeneID 27350)	-1.57	active
42	APOBEC3C (GeneID 27350)	-1.48	inactive
43	CITED1 (GeneID 4435)	0.19	inactive
44	CITED1 (GeneID 4435)	-0.33	inactive
45	CITED1 (GeneID 4435)	-0.24	inactive
46	CITED1 (GeneID 4435)	-0.11	inactive
47	NMS (GeneID 129521)	-0.82	inactive
48	NMS (GeneID 129521)	-0.85	inactive
49	NMS (GeneID 129521)	-0.49	inactive
50	NMS (GeneID 129521)	-0.9	inactive
51	ZNF426 (GeneID 79088)	0.22	inactive
52	ZNF426 (GeneID 79088)	0.55	inactive
53	ZNF426 (GeneID 79088)	0.19	inactive
54	ZNF426 (GeneID 79088)	1.88	inactive
55	FAM3B (GeneID 54097)	1.98	inactive
56	FAM3B (GeneID 54097)	2.43	inactive
57	FAM3B (GeneID 54097)	0.63	inactive
58	FAM3B (GeneID 54097)	-0.16	inactive
59	NPFFR1 (GeneID 64106)	0.37	inactive
60	NPFFR1 (GeneID 64106)	1.73	inactive
61	NPFFR1 (GeneID 64106)	0.19	inactive
62	NPFFR1 (GeneID 64106)	1	inactive
63	CLTCL1 (GeneID 8218)	2.27	inactive
64	CLTCL1 (GeneID 8218)	0.47	inactive
65	CLTCL1 (GeneID 8218)	1.55	inactive
66	CLTCL1 (GeneID 8218)	2.24	inactive
67	MFSD8 (GeneID 256471)	0.15	inactive
68	MFSD8 (GeneID 256471)	1.09	inactive
69	MFSD8 (GeneID 256471)	0.89	inactive
70	MFSD8 (GeneID 256471)	-0.42	inactive
71	SP110 (GeneID 3431)	-1.18	inactive
72	SP110 (GeneID 3431)	-0.44	inactive
73	SP110 (GeneID 3431)	-1	inactive
74	SP110 (GeneID 3431)	-1.4	inactive
75	MUL1 (GeneID 79594)	1.49	inactive
76	MUL1 (GeneID 79594)	-0.17	inactive
77	MUL1 (GeneID 79594)	1.56	inactive
78	MUL1 (GeneID 79594)	2.75	inactive
